No constants are given. Whether binding was seen depends on the method and setting. Some binding calls cover weakened binding; strength is not graded here.
B1: 抗间皮素scFv-M12 (scFv, not shown: large carriers)
scFv: AIRLTQSPSLLSASVGDRVTVTCRASQGGGNYLAWYQQKPGKAPKLLIYGASKLQSGVPSRFSGSGSGTEFTLTISSLQPEDFATYYCQQLNSYPVTFGQGTKVDIKGGGGSGGGGSGGGGSEVQLVESGAEVKKPGASVKVSCKASGYTFTTYYIHWVRQAPGQGLEWMGIINPSSGSTTYTQKFQGRVTMTRDTSTSTVYIELSGLRSEDTAVYYCARGETLRGYFDYWGQGTLVTVSS
B2: 抗间皮素scFv-M13 (scFv, not shown: large carriers)
scFv: AIRMTQSPSSLSASVGDRVTITCRASQGISNSLAWYQQKPGKAPKLLLYAASRLESGVPSRFSGSGSGTDYTLTISSLQPEDFATYYCQQYYSTPFTFGPGTKLEIKGGGGSGGGGSGGGGSQVQLVQSGAEVKKPGSSVKVSCKTSADTFSANTINWVRQAPGHGLEWMGRIIPSLNIRDYAQEFQGRVTFTADESTNTVYMQLTSLRSEDTAVYYCARDPGSTWSPNQFFPHWGQGTLVTVSS
B3: 抗间皮素scFv-M20 (scFv, not shown: large carriers)
scFv: AIQMTQSPSSLSASVGNRVTITCRASQGISSAVAWYQQKPGKPPKLLISYASSLESGVPSRFSGSGSGTDFSLTISSLQPEDFATYFCQQFNSYPLTFGGGTKVEIKGGGGSGGGGSGGGGSQVQLVQSGAEVRKPGESLKISCKGSGYSFRDSWIAWVRQMPGQGLEWMGIIFPGDSNPIYSPSFQGQVTISADTSISTTFLQWRSLKASDSAIYYCARHAAWGAGWFDPWGQGTLVTVSS
B4: 抗间皮素scFv-M24 (scFv, not shown: large carriers)
scFv: QPVLTQPPSASGTPGQRVTISCSGSSSNIGSNYVYWYQQFPGTAPKLLIYMNNQRPSGVPDRFSGSKSGTSASLAISGLRSEDEADYYCAARDDSLSGYVTFGGGTKLTVLGGGGSGGGGSGGGGSEVHLVESGGGLVQPGGSLRLSCAASGFTFSSYAMSWVRQAPGKGLEWVSAISGSGGSTYYADSVKGRFTISRDNSKNTLYLQMNSLKTEDTAVYYCTRGVATFDYWGQGTLVTVSS
B5: 抗间皮素scFv-M27 (scFv, not shown: large carriers)
scFv: EIVLTQSPGTLSLSPGERATLSCRASQPIVASHLAWYQHKPGQAPRLLIYGASTRAAGIPDRFSGSGSGTDFTLTISRLEPEDFAVYFCQQYGISPFTFGPGTKVDIKGGGGSGGGGSGGGGSQVQLVQSGAEVKKPGESLKISCQGSGYSFTDYWIGWVRQAPGQGLEWMGWITPNNGNTNYAPKFQGRVTLTTDTSTSTAYMELRSLTSDDTAVYFCARRGRNSSGYLYYYSMDVWGQGTTVTVSS
B6: 抗间皮素scFv-M28 (scFv, not shown: large carriers)
scFv: QSALTQPPSASGSPGQSVTISCSGTSSDVGGYNFVSWYQHHPGKAPKLMIYEVSKRPSGVPDRFSGSKSGNTASLTVSGLQAEDEADYYCSSYAGRNNPYLFGTGTKLTVLGGGGSGGGGSGGGGSQLQLQESGAEVKKPGSSVKVSCKASGGTFSSYAISWVRQAPGQGLEWMGGIIPIFGTANYAQKFQGRVTITADESTSTAYMELSSLRSEDTAVYYCARDLGGYSYGHGLDYWGQGTLVTVSS
B7: 抗间皮素scFv-M31 (scFv, not shown: large carriers)
scFv: QSALTQPPSASGSPGQSVTISCTGTSSDIGGYNSVSWYQQHPGKAPKLIIYGVSRRPSGVPDRFSGSKSANTASLTVSGLQAVDEADYYCSSYGGSNNLLFGGGTKLTVLGGGGSGGGGSGGGGSEVHLVESGGGLAQPGGSLRLSCAASGFSFSSSWMAWVRQAPGKGLEWVANIKQDGSSQYYVDSVKGRFTISRDNAKNSLSLQMNSLRAEDTAVYYCARDIWYSIDYWGQGTLVTVSS
B8: 抗间皮素scFv-M32 (scFv, not shown: large carriers)
scFv: DIRMTQSPSSLSASVGDRVTVTCQASEDINNSLNWYQQKPGKAPQLLIYDASDLETGVPSRFSGRGSGRDFTLTISSLQPEDFATYYCQQLNSYPLTFGGGTKLEIKGGGGSGGGGSGGGGSQVQLVQSGAEVKKPGASVKVSCKASGFTFIGYYLHWVRQAPGQGLEWMGIINPSGGRTSMAQKFQGRVSMTTDTSTGTVYLDLGRLGSDDTAVYYCARADNWNAGSMDVWGNGTTVTVSS
B9: 抗间皮素scFv-M37 (scFv, not shown: large carriers)
scFv: DIVMTQTPSSLSASVGDRVTITCRASQGISNYLAWFQQKPGKAPKPLIYAASSLQSGVPSKFSGSGSGTDFTLTISNLQPEDFATYICQQYSSYPITFGQGTRLEIKGGGGSGGGGSGGGGSQLQLQESGPGLVKPSETLSLTCAVSGGSISPYYWTWIRQSPGKAMEWMGYIHYSGRTNYNPSLESRATFSVDTSKNQISLKLNSVTAADTAVYYCTKVGDPGLFDYWGPGTLVTVSS
B10: 抗间皮素scFv-M6 (scFv, not shown: large carriers)
scFv: EIVMTQSPATLSLSPGERATLSCRASQSIGNSLAWYQQKPGQAPRLLIYDVSNRATGIPARFSGSGSGTDFTLTISSLEPEDFAVYYCQHRYSWPLTFGGGTKVEIKGGGGSGGGGSGGGGSQVQLVQSGGGLVKPGGSLRLSCAASGFTFSDYYMSWIRQAPGKGLEWVSYISSSGSTIYYADSVKGRFTISRDNAKNSLYLQMNSLRAEDTAVYYCARDGYRTHNWFDPWGQGTLVTVSS
B11: 抗间皮素scFv-M7 (scFv, not shown: large carriers)
scFv: DIRLTQSPSSLSASLGDRVTITCRASQAISSALAWYQQKPGKAPRLLIYDASTLESGVPSRFSGSGSGTDFTLTISSLQPEDFATYYCQQADSFPLTFGGGTKLEIKGGGGSGGGGSGGGGSQVQLVQSGAEVKKSGESLKISCKGSGYGFGAYWIAWVRQMPGKGLEWMGIIYPGDSRVIYSPYFQGQVTISADKSISTAYLQWSSLKASDTAMYYCARFGGPKFATNWFDIWGQGTTVTVSS
B12: 抗间皮素scFv-M8 (scFv, not shown: large carriers)
scFv: DIQLTQSPSSLSASVGDRVTITCRASQSISSSLNWYQQKPGKAPKLLIYAASSLQSGVPSRFSGSGSGTDFTLTISSLQPEDFATYSCQQSYSTPLTFGGGTKVEIKGGGGSGGGGSGGGGSQVHLVESGGGVVQPGRSLRVSCAASGFTFSGYAMYWVRQAPGKGLEYVSAITTNGGSTNYADSVKGRFTISRDNSKNTLYLQMSSLRAGDTAVYYCARGAPGYRGYYMDVWGKGTTVTVSS

Protein sequences, listed by entry. Tags and fused reporters are not part of them. Lines headed by an entry give the natural chain unless they say otherwise; changes in a name come on top. Chains listed by the source or under a name are the forms on record and can include a tag or linker.
间皮素-Fc重组蛋白 (Q13421, form named): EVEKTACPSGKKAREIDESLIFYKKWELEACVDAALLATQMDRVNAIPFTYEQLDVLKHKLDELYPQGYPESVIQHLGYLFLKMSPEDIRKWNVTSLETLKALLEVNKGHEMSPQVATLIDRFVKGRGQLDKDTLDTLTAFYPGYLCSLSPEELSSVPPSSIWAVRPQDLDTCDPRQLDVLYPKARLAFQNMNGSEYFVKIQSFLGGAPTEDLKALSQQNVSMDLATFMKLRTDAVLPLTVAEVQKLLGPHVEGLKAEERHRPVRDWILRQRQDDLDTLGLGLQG

The binders below were run against 间皮素-Fc重组蛋白 (human) (UniProt Q13421) (assay: FACS staining of CAR T cells with mesothelin-Fc recombinant protein).

binding, binds:
B1
B2
B3
B4
B5
B6
B7
B8
B9
B10
B11
B12
